From PubChem BioAssay AID1671190 (National Center for Advancing Translational Sciences (NCATS), 2021)
Hit rate of the full screen: of about 580,000 compounds, about 6,100 (1.1%) were called active. Inconclusive means that the source gave no clear call. Such entries were picked first, then a sample of the others. Calls come from the whole dose curve; as a rule, active = well fitted inhibition curve with a large enough effect; inconclusive = small, poorly fitted or top-dose-only effect, or another doubt; inactive = no such curve, though single readings can be large or run the other way. Potencies beside an inconclusive call are fits to weak or partial responses and may not hold up.

By UniProt entry, the sequences of proteins in these tests, tags left out.
UniProt P18054, whole entry, looked up: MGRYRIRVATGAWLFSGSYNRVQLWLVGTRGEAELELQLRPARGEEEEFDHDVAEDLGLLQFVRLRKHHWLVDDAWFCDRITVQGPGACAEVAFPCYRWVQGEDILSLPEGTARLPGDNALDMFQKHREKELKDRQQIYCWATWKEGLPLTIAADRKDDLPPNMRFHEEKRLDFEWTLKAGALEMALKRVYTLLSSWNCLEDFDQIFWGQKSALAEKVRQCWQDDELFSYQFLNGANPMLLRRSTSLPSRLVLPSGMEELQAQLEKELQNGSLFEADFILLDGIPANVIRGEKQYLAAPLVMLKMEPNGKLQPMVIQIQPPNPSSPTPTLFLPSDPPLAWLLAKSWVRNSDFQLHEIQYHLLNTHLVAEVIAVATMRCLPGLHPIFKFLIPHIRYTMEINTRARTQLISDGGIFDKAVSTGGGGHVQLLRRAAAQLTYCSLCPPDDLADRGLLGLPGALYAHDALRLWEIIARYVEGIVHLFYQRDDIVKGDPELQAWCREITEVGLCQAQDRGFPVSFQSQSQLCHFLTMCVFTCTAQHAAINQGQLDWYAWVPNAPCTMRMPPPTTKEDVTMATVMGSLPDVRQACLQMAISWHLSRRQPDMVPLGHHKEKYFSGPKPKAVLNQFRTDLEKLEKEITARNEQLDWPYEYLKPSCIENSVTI

molecular target: Polyunsaturated fatty acid lipoxygenase ALOX12 (Homo sapiens) (UniProt P18054); experiment: Primary qHTS assay for inhibitors of human arachidonate 12S-lipoxygenase (ALOX12): Round 2; details: purified 12hLO, xylenol orange hydroperoxide absorbance; activity change, negative = inhibition: at 108 µM (top of the series)
Method in brief: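 Hydroperoxide product was detected by ferrous iron/xylenol orange as the 573 to 405 nm absorbance ratio. Arachidonic acid at 40 uM (final) was turned over for 30 min at room temperature by 150 nM human 12hLO, pH 7.0 Hepes buffer, after 15 min compound preincubation.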
% is set by controls: 0 for no effect and ±100 for the full control effect; potency is the fitted concentration of half-maximal effect.

| SMILES | Potency | activity change, negative = inhibition |
| --- | --- | --- |
| O=C(Nc1ccc(Br)cc1)c1cc(Br)cc(Br)c1O | active: 39.8 µM |  |
| COc1ccc(CN2CCN(Cc3ccccc3OC)CC2)cc1 | inconclusive: 0.316 µM [inhibitor, full curve, poor fit] |  |
| O=C1NCN(c2ccccc2)C12CCNCC2 |  | inactive: -17.7% |
| FC(F)Oc1ccc(CNCCc2c[nH]c3ccccc23)cc1 | inconclusive: 39.8 µM [inhibitor, partial curve, poor fit] |  |
| Cc1nc(-c2ccco2)cc([C@H]2CN3CC[C@H]2C[C@@H]3CNC(=O)C2CCCCC2)n1 | inconclusive: 22.4 µM [inhibitor, full curve, poor fit] |  |
| CCN(C(=O)COC(=O)c1cn(C)c2ccccc12)c1ccc(F)cc1 | inactive |  |
| CCOC(=O)c1c(C)n(Cc2ccccc2Cl)c2ccc(O)cc12 | active: 20 µM |  |
| CCCCCn1cc(C(=O)C(=O)N2CCOCC2)c2ccccc21 | inconclusive: 44.7 µM [inhibitor, partial curve, poor fit] |  |
| Cn1nc(-c2ccccc2)cc1[C@H]1CN2CC[C@H]1C[C@@H]2CNC(=O)N1CCOCC1 |  | inactive: 30.4% [at 176 µM] |
| CN(C)C(CSS(=O)(=O)c1ccccc1)CSS(=O)(=O)c1ccccc1 | active: 0.708 µM |  |
| NCCc1ccccc1 | inactive |  |
| C=CCN1C(=O)NC(=O)/C(=C/c2cc3c4c(c2)CCCN4CCC3)C1=O | inconclusive: 56.2 µM [inhibitor, partial curve, poor fit] |  |
| CSc1ccc(CN2CCN(C(=O)Cc3ccccc3)CC2)cc1 |  | inactive: 25.9% |
| Cc1ccc(NC(=O)N(Cc2ccc3c(c2)OCO3)C2CCN(Cc3ccccc3)CC2)cc1F |  | inconclusive: -33.5% [inhibitor] |
| c1ccc(C2=NOC3(CCCN(CC4CCCCC4)C3)C2)nc1 (stereo not given) |  | inactive: 0.834% [at 6.33 µM] |
| COCCN1C(=O)NC(=O)/C(=C\c2ccc(Br)cc2)C1=O |  | inactive: -14.2% |
| Cn1nc(C2CCCCC2)cc1[C@H]1CN2CC[C@H]1C[C@@H]2CNC(=O)c1cccs1 |  | inactive: 53.9% [at 176 µM] |
| COC(=O)C1=C(C)NC(=S)NC1c1ccc(N(CCCl)CCCl)cc1Cl (stereo not given) | active: 35.5 µM |  |
| CCC(C)C1NC(=O)C(C(C)=O)=C1O (stereo not given) |  | inactive: -15.9% |
| C[C@]12CCC3C(CCC4=C/C(=N/OCC(=O)NC(CCC(N)=O)C(=O)O)CC[C@@]43C)C1CCC2O (stereo not given in full) | inconclusive: 35.5 µM [inhibitor, partial curve, poor fit] |  |
| O=C(C[N+]12CCN(CC1)CC2)NCCc1ccc(Cl)cc1Cl | inconclusive: 0.398 µM [inhibitor, full curve, poor fit] |  |
| C[C@H]1CNCCN1c1ccc(N2CC[C@@H](O)C2)c(C#N)c1 | inconclusive: 39.8 µM [inhibitor, partial curve, poor fit] |  |
| CNCC/C=C\c1cccnc1 | active: 25.1 µM |  |
| CSc1ncc(Cl)c(C(=O)O)n1 (tested in a mixture with another compound) | inconclusive: 31.6 µM [inhibitor, single point] |  |

| SMILES | Potency | activity change, negative = inhibition |
| --- | --- | --- |
| CCN1CCN(Cc2cc(Br)cc(OC)c2O)CC1 | inconclusive: 44.7 µM [inhibitor, partial curve, poor fit] |  |
| CC(C)NC(=O)NC[C@H]1C[C@@H]2CCN1C[C@@H]2CN(C)Cc1ccccc1 |  | inactive: 69.9% [at 176 µM] |
| O=C1NC(=O)C(=Cc2ccc(SC3CCCCC3)o2)C(=O)N1 | active: 22.4 µM |  |
| C#CCOc1cc(C2C3=C(COC3=O)Nc3cc4c(cc32)OCO4)ccc1OC (stereo not given) |  | inactive: 31% |
| O=C1NCN(c2ccccc2)C12CCN(C(c1ccccc1OC(F)(F)F)c1nnnn1Cc1ccccc1)CC2 (stereo not given) | inconclusive: 100 µM [inhibitor, single point] |  |
| COc1ccc([N+](=O)[O-])c(N2CC3CCC(C2)N3CC(F)(F)F)n1 | inconclusive: 5.01 µM [inhibitor, full curve, poor fit] |  |
| CCc1c(C(=O)OC)ncc2[nH]c3cc(OC)c(OC)cc3c12 | inconclusive: 50.1 µM [inhibitor, partial curve, poor fit] |  |
| CCCCn1c(O)c(C(CC)=NC(C)c2ccccc2)c(=O)[nH]c1=O (stereo not given) | inconclusive: 35.5 µM [inhibitor, partial curve] |  |
| O=C(Nc1c(F)cc(F)cc1F)c1cccn(Cc2ccccc2)c1=O | inconclusive: 44.7 µM [inhibitor, partial curve, poor fit] |  |
| C[N+]1(C)C2CC[C@H]1CC(OC(=O)C(CO)c1ccccc1)C2 (stereo not given in full) |  | inactive: -8.38% |
| COc1ccc(CN2C(=O)NC(=O)/C(=C/c3ccoc3)C2=O)cc1 | inconclusive: 35.5 µM [inhibitor, partial curve, poor fit] |  |
| Fc1ccccc1N1CCN(Cc2c(F)cccc2F)CC1 | inconclusive: 0.708 µM [inhibitor, full curve, poor fit] |  |
| CCCCCSc1cc(OC)c(CCNC)cc1OC | inconclusive: 50.1 µM [inhibitor, single point] |  |
| Cc1ccc(O)c(CN2CCN(c3ccccc3)CC2)c1 |  | inactive: 33.7% |
| COC(=O)C1=C(C(=O)OC)SC2(S1)C(C(=O)OC)=C(C(=O)OC)Sc1c2ssc1=O | inconclusive: 8.91 µM [inhibitor, full curve] |  |
| Cc1ccc2c(n1)N(C)[C@H](CO)CCN(CCC(C)C)C2 |  | inactive: 65.5% [at 176 µM] |
| Oc1ccc(C2=CCN(CC(O)COc3ccc(F)cc3)CC2)cc1 (stereo not given) | inconclusive: 63.1 µM [inhibitor, partial curve, poor fit] |  |
| COc1ccc(CC(=O)N2Cc3ccccc3CC3(CCCCN3C)C2)cc1 (stereo not given) | inconclusive: 39.8 µM [inhibitor, partial curve, poor fit] |  |
| CC1CCCCN1Cc1cccnc1 (stereo not given) | inconclusive: 0.316 µM [inhibitor, full curve, poor fit] |  |
| O=C1NC(=O)C(=Cc2cc3c(cc2[N+](=O)[O-])OCO3)C(=O)N1 | inconclusive: 44.7 µM [inhibitor, partial curve, poor fit] |  |
| Clc1ccc(COc2cccc(CNC3CN4CCC3CC4)c2)c(Cl)c1 (stereo not given) | inconclusive: 44.7 µM [inhibitor, partial curve, poor fit] |  |
| O=C1NCCCCCN[C@H]2CCC[C@@H]12 |  | inactive: 47% |
| O=C1NC(=O)N(c2ccc(F)cc2)C(=O)/C1=C/c1ccc(N2CCOCC2)cc1 |  | inactive: -18.4% |
| O=C1CO[C@H]2CN(C3CCOCC3)C[C@H]2N1Cc1ccncc1 |  | inactive: 75.6% [at 176 µM] |

Fetched by compound from above (3):

| SMILES | Potency | activity change, negative = inhibition |
| --- | --- | --- |
| CCOC(=O)c1c(C)n(Cc2ccccc2Cl)c2ccc(O)cc12 | active: 20 µM |  |
| C=CCN1C(=O)NC(=O)/C(=C/c2cc3c4c(c2)CCCN4CCC3)C1=O | inconclusive: 56.2 µM [inhibitor, partial curve, poor fit] |  |
| C[C@H]1CNCCN1c1ccc(N2CC[C@@H](O)C2)c(C#N)c1 | inconclusive: 39.8 µM [inhibitor, partial curve, poor fit] |  |

Next compounds.

| SMILES | Potency | activity change, negative = inhibition |
| --- | --- | --- |
| O=C(NCCN1CCC2(CC1)C(=O)NCN2c1ccccc1)c1ccc(F)cc1F | inconclusive: 28.2 µM [inhibitor, partial curve] |  |
| C=CCN1CCC2(C)c3cc(O)ccc3CC1[C@@H]2C (stereo not given in full) | inconclusive: 100 µM [inhibitor, single point] |  |
| Cc1nc(-c2ccccc2)cc([C@H]2CN3CC[C@H]2C[C@@H]3CNC(=O)C2CCC2)n1 |  | inactive: 23% [at 176 µM] |
| O=C(O)c1cc(Cl)nc(Cl)c1 | inconclusive: 39.8 µM [inhibitor, partial curve, poor fit] |  |
| COC(=O)C1=C(c2ccc(-c3ccccc3)c(F)c2)C[C@@H]2CC[C@H]1N2C(=O)NC1Cc2ccccc2C1 |  | inactive: 3.02% |
| C#C[C@H]1CN2CC[C@H]1C[C@@H]2CNC(=O)C1CCCCC1 |  | inactive: 2.95% [at 176 µM] |
| COc1cccc(N2C(=O)NC(=O)C3(Cc4cc(C)ccc4N(C)C3)C2=O)c1 (stereo not given) | inconclusive: 35.5 µM [inhibitor, single point] |  |
| COc1cc2c(cc1OCc1ccccc1)N([S+](=O)([O-])c1cccc3cccnc13)CC21CCN(C)CC1 | inconclusive: 22.4 µM [inhibitor, full curve] |  |
| FC(F)(F)c1ccc2c(c1)N(CCCN1CCN(CCCl)CC1)c1ccccc1S2 | inconclusive: 3.98 µM [inhibitor, full curve, poor fit] |  |
| N#Cc1ccc(Cn2cc(C(=O)C3CC3)c3ccccc32)cc1 | inconclusive: 35.5 µM [inhibitor, partial curve, poor fit] |  |
| O=C(Cc1ccccc1)OCCNC(=O)c1cccnc1 | inconclusive: 6.31 µM [inhibitor, full curve, poor fit] |  |
| C=C(C)[C@@]12OC3(c4ccccc4)O[C@@H]1[C@@H]1[C@@H]4O[C@]4(CO)[C@@H](O)[C@]4(O)C(=O)C(C)=C[C@H]4[C@@]1(O3)[C@H](C)[C@H]2OC(=O)/C=C/C=C/c1ccccc1 |  | inactive: 20.7% |
| O=C(Nc1ccc2n(c1=O)C[C@H]1C[C@@H]2CN(C2CCOCC2)C1)c1ccccc1 | inconclusive: 31.6 µM [inhibitor, full curve, poor fit] |  |
| COc1ccc2c(C(=O)c3ccc(Cl)cc3)c(C)n(CC(=O)O)c2c1 | inconclusive: 10.2 µM [inhibitor, single point] |  |
| CCCCCCn1c(O)c(C=Nc2ccccc2N2CCOCC2)c(=O)[nH]c1=S |  | inactive: 188% |
| O=C1NC(=O)N(Cc2ccccc2Cl)C(=O)/C1=C/c1cccs1 | inconclusive: 31.6 µM [inhibitor, partial curve] |  |
| COC(COC(N)=O)C1=C(N2CC2)C(=O)C(C)=C(N2CC2)C1=O (stereo not given) | inconclusive: 12.6 µM [inhibitor, full curve, poor fit] |  |
| NC(C(=O)O)c1cc(=O)[nH]o1 (stereo not given) | inconclusive: 50.1 µM [inhibitor, partial curve, poor fit] |  |
| CCOC(=O)C12C(=O)OCC1C2c1ccccc1 (stereo not given) |  | inactive: 17.5% |
| CC(C)c1ccc(N2C(=O)NC(=O)/C(=C/C=C/c3ccco3)C2=O)cc1 | active: 44.7 µM |  |
| Cc1cc(/C=C2\C(=O)NC(=O)N(Cc3ccccc3)C2=O)c(C)n1C1CC1 | inconclusive: 100 µM [inhibitor, partial curve, poor fit] |  |
| Cc1noc(C)c1CC(=O)N1[C@H]2CC[C@@H]1c1cnc(-c3ccccc3)nc1C2 |  | inactive: 21.1% |

An excerpt of these results, bar-delimited:
SMILES | Potency | activity change, negative = inhibition
CSc1ccc(CN2CCN(C(=O)Cc3ccccc3)CC2)cc1 |  | inactive: 25.9%
CC1CCCCN1Cc1cccnc1 (stereo not given) | inconclusive: 0.316 µM [inhibitor, full curve, poor fit] | 
